Data published in article doi:10.1101/2024.10.10.617546.
No constants are given. Whether binding was seen depends on the method and setting. Binding seen in cells or lysates may run through a third protein. Some entries that bind do so weakly or less than the wild type.

Protein sequences, listed by entry. Tags and fused reporters are not part of them.
UniProt Q3UHK6: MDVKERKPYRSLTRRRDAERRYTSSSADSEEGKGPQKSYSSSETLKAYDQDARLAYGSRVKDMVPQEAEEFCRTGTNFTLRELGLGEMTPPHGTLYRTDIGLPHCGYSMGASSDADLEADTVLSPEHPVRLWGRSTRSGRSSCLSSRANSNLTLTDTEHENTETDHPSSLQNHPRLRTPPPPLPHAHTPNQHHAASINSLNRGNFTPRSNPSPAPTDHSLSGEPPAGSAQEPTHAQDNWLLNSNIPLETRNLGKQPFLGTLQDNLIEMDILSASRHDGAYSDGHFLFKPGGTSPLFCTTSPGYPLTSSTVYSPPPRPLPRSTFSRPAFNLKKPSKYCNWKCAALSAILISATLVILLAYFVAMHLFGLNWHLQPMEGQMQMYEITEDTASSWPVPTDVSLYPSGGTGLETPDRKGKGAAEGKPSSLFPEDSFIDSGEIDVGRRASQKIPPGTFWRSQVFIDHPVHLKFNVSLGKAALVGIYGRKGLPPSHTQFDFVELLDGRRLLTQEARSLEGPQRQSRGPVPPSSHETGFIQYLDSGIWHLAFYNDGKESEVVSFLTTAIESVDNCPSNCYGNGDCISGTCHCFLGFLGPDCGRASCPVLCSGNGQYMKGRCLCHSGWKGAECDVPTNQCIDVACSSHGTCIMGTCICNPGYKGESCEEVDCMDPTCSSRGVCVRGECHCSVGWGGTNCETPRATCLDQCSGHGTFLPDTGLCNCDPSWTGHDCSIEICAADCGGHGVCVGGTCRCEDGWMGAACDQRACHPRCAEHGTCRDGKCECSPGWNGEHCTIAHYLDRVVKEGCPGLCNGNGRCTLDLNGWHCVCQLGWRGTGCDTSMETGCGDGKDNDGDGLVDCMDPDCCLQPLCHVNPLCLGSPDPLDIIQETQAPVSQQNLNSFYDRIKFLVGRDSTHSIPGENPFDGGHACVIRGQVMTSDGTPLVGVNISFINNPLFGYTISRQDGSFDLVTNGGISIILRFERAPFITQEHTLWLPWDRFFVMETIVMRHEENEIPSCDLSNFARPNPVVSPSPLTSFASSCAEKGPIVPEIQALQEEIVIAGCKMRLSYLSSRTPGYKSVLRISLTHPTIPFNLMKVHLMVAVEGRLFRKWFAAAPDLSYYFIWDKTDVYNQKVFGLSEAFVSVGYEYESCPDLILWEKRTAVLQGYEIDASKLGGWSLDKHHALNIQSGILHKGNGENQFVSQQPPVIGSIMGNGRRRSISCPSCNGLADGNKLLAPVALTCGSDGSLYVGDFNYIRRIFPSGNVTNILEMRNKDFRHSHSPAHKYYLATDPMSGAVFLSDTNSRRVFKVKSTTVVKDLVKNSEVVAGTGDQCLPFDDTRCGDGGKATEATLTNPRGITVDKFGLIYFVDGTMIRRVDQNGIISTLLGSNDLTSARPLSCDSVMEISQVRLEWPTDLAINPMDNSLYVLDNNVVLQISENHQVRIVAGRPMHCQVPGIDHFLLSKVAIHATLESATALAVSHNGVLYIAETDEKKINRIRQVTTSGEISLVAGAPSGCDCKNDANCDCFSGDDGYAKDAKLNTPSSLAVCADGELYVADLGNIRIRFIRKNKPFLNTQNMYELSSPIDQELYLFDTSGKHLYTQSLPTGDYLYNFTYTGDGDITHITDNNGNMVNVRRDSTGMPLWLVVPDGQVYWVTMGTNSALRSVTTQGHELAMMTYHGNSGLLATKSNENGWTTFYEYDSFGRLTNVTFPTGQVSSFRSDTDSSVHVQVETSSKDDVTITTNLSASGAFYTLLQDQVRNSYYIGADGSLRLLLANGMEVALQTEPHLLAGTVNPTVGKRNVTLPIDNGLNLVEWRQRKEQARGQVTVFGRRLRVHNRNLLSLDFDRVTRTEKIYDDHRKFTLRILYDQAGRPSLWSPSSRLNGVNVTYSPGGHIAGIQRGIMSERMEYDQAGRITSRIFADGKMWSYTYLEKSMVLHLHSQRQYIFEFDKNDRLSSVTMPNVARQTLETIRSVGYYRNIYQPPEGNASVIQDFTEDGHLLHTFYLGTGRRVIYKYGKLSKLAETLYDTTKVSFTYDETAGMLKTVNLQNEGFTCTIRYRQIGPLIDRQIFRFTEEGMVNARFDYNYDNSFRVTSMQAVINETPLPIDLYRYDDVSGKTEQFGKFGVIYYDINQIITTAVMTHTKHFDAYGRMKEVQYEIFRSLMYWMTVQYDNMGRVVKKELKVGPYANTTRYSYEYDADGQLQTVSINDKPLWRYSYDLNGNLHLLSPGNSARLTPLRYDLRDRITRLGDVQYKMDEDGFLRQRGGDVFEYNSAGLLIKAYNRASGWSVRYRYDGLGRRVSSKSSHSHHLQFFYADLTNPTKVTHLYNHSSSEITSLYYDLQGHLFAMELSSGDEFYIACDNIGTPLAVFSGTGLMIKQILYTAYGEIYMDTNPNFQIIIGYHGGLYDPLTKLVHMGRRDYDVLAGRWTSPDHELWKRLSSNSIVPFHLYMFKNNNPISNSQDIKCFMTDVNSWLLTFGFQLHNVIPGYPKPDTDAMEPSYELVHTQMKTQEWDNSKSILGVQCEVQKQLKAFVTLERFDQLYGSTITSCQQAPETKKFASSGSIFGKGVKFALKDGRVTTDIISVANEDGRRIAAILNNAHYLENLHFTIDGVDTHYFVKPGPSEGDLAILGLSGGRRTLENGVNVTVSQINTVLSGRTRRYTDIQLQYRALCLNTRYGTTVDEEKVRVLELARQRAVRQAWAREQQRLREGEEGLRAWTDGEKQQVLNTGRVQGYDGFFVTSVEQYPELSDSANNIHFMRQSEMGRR
UniProt Q8CD54: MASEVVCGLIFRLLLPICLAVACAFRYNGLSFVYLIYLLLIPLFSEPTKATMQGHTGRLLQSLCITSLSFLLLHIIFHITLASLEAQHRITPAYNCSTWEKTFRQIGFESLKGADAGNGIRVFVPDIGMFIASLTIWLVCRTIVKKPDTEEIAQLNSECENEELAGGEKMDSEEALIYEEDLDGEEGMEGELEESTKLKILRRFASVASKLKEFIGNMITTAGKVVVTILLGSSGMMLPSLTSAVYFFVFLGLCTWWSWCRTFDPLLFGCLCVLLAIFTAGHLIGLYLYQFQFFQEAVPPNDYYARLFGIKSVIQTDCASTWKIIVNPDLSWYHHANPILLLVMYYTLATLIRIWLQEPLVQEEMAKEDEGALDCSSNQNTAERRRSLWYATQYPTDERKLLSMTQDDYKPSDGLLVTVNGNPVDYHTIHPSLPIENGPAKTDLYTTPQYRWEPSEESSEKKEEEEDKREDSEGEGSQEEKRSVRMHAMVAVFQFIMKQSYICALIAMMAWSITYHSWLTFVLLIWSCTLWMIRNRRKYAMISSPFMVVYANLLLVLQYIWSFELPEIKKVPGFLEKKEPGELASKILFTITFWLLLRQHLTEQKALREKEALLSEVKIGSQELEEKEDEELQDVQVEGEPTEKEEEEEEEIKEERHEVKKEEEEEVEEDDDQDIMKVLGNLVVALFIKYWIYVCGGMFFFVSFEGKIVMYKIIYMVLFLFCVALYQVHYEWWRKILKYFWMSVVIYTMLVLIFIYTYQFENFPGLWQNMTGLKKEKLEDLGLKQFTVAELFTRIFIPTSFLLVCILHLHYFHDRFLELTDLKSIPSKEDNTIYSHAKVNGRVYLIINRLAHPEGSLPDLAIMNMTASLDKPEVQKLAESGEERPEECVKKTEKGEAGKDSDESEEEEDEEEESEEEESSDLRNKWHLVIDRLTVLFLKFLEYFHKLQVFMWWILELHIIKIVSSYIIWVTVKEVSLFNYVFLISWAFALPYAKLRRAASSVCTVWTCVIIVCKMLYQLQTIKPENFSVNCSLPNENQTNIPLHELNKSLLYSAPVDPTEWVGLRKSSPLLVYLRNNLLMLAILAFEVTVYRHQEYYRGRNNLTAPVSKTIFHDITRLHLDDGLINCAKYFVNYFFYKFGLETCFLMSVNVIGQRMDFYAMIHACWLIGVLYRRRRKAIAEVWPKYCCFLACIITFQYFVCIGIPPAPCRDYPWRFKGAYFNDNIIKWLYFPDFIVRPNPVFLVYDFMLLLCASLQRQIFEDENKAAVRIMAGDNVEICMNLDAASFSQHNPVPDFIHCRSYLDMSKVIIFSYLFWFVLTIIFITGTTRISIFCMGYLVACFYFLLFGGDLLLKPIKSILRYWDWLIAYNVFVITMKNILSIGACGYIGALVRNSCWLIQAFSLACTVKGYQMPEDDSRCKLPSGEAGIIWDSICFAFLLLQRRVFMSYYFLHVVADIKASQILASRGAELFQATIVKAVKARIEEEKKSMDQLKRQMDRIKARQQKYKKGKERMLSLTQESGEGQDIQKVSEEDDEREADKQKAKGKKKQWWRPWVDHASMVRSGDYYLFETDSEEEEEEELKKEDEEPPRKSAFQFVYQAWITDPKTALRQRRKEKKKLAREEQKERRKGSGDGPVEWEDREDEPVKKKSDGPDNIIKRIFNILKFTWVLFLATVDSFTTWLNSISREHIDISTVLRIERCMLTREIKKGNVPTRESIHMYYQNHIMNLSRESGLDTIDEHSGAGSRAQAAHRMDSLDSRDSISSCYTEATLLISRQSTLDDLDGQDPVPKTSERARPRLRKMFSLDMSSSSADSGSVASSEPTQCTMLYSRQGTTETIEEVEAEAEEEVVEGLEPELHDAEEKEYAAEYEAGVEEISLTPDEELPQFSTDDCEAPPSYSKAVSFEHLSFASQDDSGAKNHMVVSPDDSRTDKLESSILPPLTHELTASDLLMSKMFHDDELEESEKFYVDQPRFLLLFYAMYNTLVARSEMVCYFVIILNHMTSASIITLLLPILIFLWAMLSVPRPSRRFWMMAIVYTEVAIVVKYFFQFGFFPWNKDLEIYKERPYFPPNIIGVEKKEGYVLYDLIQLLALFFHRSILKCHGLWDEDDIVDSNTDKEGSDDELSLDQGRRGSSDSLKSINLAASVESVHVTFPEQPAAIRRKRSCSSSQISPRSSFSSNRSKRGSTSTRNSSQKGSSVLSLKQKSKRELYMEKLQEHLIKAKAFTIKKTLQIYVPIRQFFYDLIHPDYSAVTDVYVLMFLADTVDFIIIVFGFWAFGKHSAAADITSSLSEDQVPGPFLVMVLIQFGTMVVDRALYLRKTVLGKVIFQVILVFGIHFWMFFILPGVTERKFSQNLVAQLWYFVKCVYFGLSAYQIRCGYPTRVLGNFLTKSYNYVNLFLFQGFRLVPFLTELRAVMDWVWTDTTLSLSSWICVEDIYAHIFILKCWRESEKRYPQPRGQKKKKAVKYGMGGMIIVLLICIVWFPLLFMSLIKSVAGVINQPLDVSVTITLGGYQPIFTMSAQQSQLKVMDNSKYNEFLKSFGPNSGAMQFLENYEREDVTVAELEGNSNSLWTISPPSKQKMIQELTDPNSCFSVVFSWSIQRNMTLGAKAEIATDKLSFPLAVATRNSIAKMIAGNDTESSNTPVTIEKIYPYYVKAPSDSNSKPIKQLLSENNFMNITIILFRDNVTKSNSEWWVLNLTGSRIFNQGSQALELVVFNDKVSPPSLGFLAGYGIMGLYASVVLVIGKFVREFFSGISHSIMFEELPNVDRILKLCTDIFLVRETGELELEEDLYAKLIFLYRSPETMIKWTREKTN

B1: ELKIN1 (protein, UniProt Q8BXN9 22-555)
chain: FPLSFLGAGPAPVFAADRSKWHIPMPSGKGYFNFGKILFRNTTILLKFDGEPCDQSLNITWFLKSADCYNEIYNFKADEIESYLENLKGKKGLSGRYQTSSRLFQNCSELYKAQSFSGDFTHRLPLLGEKQEAKENATNVTFTGDKIAMHEPLQTWQDAPYIFIVHVGISSSKESPKENALSNLFTMTVEVKGPYEYLTLEDYPLMIFFMVMCIVYVLFGVLWLAWSACYWRDLLRIQFWIGAVIFLGMFEKAVFYAEFQNIRYKGESVQNALVLAELLSAVKRSLARTLVIIVSLGYGIVKPRLGVTLHKVVVAGALYLLFSGMEGVLRVTGAQTDLASLAFIPLAFLDTALCWWIFISLTQTMKLLKLRRNIVKLSLYRHFTNTLILAVAASIVFIIWTTMKFRIVTCQSDWRELWVDDAIWRLLFSMILFVIMILWRPSANNQRFAFSPLSEEDEEDEQKEPMLKESFEGMKMRSTKQEPNGTSKVNKAQEDDLKWVEENVPSSVTDVALPALLDSDEERMITHFERSKME

Target: TENM4-ALFA (full length Teneurin-4 with a C-terminal ALFA-tag) (mouse) (UniProt Q3UHK6)
Assay: co-IP

Molecule | binding
PIEZO2 (from UniProt Q8CD54 1-2822) | no binding
B1 | binds
